Test results reported in PubChem BioAssay AID504444 (National Center for Advancing Translational Sciences (NCATS), 2011).
Among all 360,000 compounds or so, about 7,500 (2.1%) were called active. Inconclusive results, whose numbers are uncertain, are shown with a selection of clear calls. Calls come from the whole dose curve; as a rule, active = well fitted inhibition curve with a large enough effect; inconclusive = small, poorly fitted or top-dose-only effect, or effect the other way; inactive = flat fitted curve, though single readings scatter. Where the call is inconclusive, the potency comes from a doubtful curve fit.

assay: Nrf2 qHTS screen for inhibitors; settings: A549 ARE-Fluc reporter, luciferase luminescence, 18-24 h; activity change, negative = inhibition: at 46 µM (top of the series); note: nearly all actives have a fitted effect of over 60% in size
Excerpt: NIH Molecular Libraries Probe Production Network [MLPCN]
NIH Chemical Genomics Center [NCGC]
Assay Provider: Shyam Biswal, Johns Hopkins University
Nrf2 is a transcription factor that maintains cellular redox homoestasis and protects cells from xenobiotics. Nrf2 binds to the antioxidant response element (ARE) to induce gene expression of a broad spectrum of genes that encode for antioxidants. […] Finding a small molecule that act as an inhibitor of Nrf2 function would represent a novel therapeutic target that could lead to improvement in survival of patients undergoing chemo- and/or radio- therapy.
This is the Nrf2 activity measured in the luminescent read.
1. Shibata, T., et al., Genetic Alteration of Keap1 Confers Constitutive Nrf2 Activation and Resistance to Chemotherapy in Gallbladder Cancer. Gastroenterology, 2008.
2. Sjoblom, T., et al., The consensus coding sequences of human breast and colorectal cancers. Science, 2006. 314(5797): p. 268-74.
NCGC Assay Protocol Summary:
A concentration-response assay was performed with A549 ARE_Fluc cells which are suspended in 5% FBS OPTI-MEM. Five uL were dispensed into 1536-well white TC-treated plate using the Kalypsys dispenser to achieve a density of 5000 cells/well in all columns except column 1. The plate is incubated at 37deg C at 5% CO2 for 2 hours before 23 nL of compounds are added with the Kalypsys pin tool equipped with a 1,536-pin array containing 10-nL slotted pins (FP1S10, 0.457-mm diameter, 50.8 mm long; V&P Scientific). The control compounds Budesonide and Staurosporine are both added at a concentration of 2mM and Budesonide is also added as a 1:10 titration, starting at 200uM, to achieve dose-response. After an 18-24 hour incubation at 37deg C at 5% CO2, 5ul of medium is added to column 1. Afterwards 1ul of 5x of CellTiter-Fluor (Promega) is added to every well. The plate is then incubated at 37deg C at 5% CO2 for 30 minutes before they are read on the ViewLux (Perkin Elmer) for a fluorescent read Ex=405(10)/Em=525(10) for a 3 second exposure, 2x binning, and high gain. Then 3 uL of 3x BugLite is dispensed into all wells and the plate is incubated at ambient room temperature for 15 minutes. Afterwards another ViewLux read is performed using the clear filter to get a luminescent read with the settings of 40 second exposure, 2x binning, and high gain. Cytotoxicity is assessed through the first fluorescent read and then biochemical activity against Nrf2 is measured in the luminescent read.
% is set by controls: 0 for no effect and ±100 for the full control effect; potency is the fitted concentration of half-maximal effect.

| SMILES | Potency | activity change, negative = inhibition |
| --- | --- | --- |
| O=C(c1ccco1)N1CCC(c2nc(-c3ccc(F)cc3)no2)CC1 | inconclusive: 29.1 µM [falling, single point] |  |
| CS(=O)(=O)c1ncc(Cl)c(C(=O)Nc2ccc(OC(F)F)cc2)n1 | inconclusive: 29.1 µM [falling, single point] |  |
| CC1Cc2cc(S(=O)(=O)N3CCN(c4ccccc4F)CC3)ccc2N1C(=O)C1CC1 (stereo unspecified) | active: 14.6 µM |  |
| C[n+]1ccccc1/C=C/c1ccc(C#N)cc1 | inconclusive: 20.6 µM [falling, single point] |  |
| Cc1cccc(N2C(=O)CSC23C(=O)N(CC(=O)NCc2ccccc2Cl)c2ccccc23)c1 (stereo unspecified) | inactive |  |
| Cc1ccc(NC(=O)CCCSc2ccccc2)cc1S(=O)(=O)N1CCOCC1 | inconclusive: 18.4 µM [falling, partial curve, poor fit] |  |
| CCC1(c2ccc(F)cc2)NC(=O)N(CC(=O)N2CCN(S(=O)(=O)c3ccc(C)cc3C)CC2)C1=O (stereo unspecified) | active: 18.4 µM |  |
| C=CCNc1ncnc2c1ncn2C1OC(CO)C(O)C1O (stereo unspecified) | inconclusive: 16.4 µM [falling, partial curve, poor fit] |  |
| CCOc1ccccc1N(C(=O)CNS(=O)(=O)c1ccccc1)C(CC)C(=O)NCc1ccco1 (stereo unspecified) | inactive |  |
| COc1ccc(CN2CC(=O)N(c3ccc(C)cc3C)C2=S)cc1OC | active: 13 µM |  |
| CCCCN1CC(C(=O)NC2CCCCC2)CC1=O (stereo unspecified) | inactive |  |
| O=Nc1c(-c2ccccc2)cc2ccccn12 | inconclusive: 6.51 µM [activator, full curve] |  |
| CC1CCN(C(=O)CCCC(=O)N2CCC(C)CC2)CC1 | inactive |  |
| CC(=O)c1cccc(OCC(=O)N2CCN(c3ccc(C(F)(F)F)cn3)CC2)c1 | inconclusive: 23.1 µM [falling, partial curve] |  |
| OCCOCCn1c(C2CCCN2c2nc(-c3ccc(F)cc3)cs2)nc2cc(Cl)c(Cl)cc21 (stereo unspecified) | inconclusive: 20.6 µM [falling, single point] |  |
| COc1ccc(N2CC(C(=O)NCc3nnnn3-c3ccc(C)c(C)c3)CC2=O)cc1 (stereo unspecified) | inconclusive: 13 µM [activator, single point] |  |
| Cc1ccc(NC(=O)CSc2nnc(NC(=O)CN3CCOCC3)s2)cc1 | inconclusive: 18.4 µM [falling, partial curve, poor fit] |  |
| O=C(/C=C/c1cccc([N+](=O)[O-])c1)NCCSCc1ccc(Cl)cc1Cl | inactive |  |
| COc1cccc(-c2ccc3ncnc(NCc4cccs4)c3c2)c1 | inconclusive: 25.9 µM [falling, single point] |  |
| CCC(CC)c1nnc(NC(=O)COc2ccc3c(c2)OCO3)s1 | inconclusive: 20.6 µM [activator, partial curve] |  |
| Cc1ccc(-c2nnc(CSc3nnc(COc4cccc5ccccc45)n3-c3ccccc3)o2)cc1 | inconclusive: 20.6 µM [falling, partial curve, poor fit] |  |
| CCC(C)OC(=O)C1C(c2ccccc2)C(C(=O)O)C1c1ccccc1 (stereo unspecified) | inconclusive: 1.84 µM [falling, full curve, poor fit] |  |

No new results follow: an excerpt of the list.

| SMILES | Potency | activity change, negative = inhibition |
| --- | --- | --- |
| CS(=O)(=O)c1ncc(Cl)c(C(=O)Nc2ccc(OC(F)F)cc2)n1 | inconclusive: 29.1 µM [falling, single point] |  |
| CC1Cc2cc(S(=O)(=O)N3CCN(c4ccccc4F)CC3)ccc2N1C(=O)C1CC1 (stereo unspecified) | active: 14.6 µM |  |
| C[n+]1ccccc1/C=C/c1ccc(C#N)cc1 | inconclusive: 20.6 µM [falling, single point] |  |
| Cc1cccc(N2C(=O)CSC23C(=O)N(CC(=O)NCc2ccccc2Cl)c2ccccc23)c1 (stereo unspecified) | inactive |  |
| Cc1ccc(NC(=O)CCCSc2ccccc2)cc1S(=O)(=O)N1CCOCC1 | inconclusive: 18.4 µM [falling, partial curve, poor fit] |  |
| CCC1(c2ccc(F)cc2)NC(=O)N(CC(=O)N2CCN(S(=O)(=O)c3ccc(C)cc3C)CC2)C1=O (stereo unspecified) | active: 18.4 µM |  |
| C=CCNc1ncnc2c1ncn2C1OC(CO)C(O)C1O (stereo unspecified) | inconclusive: 16.4 µM [falling, partial curve, poor fit] |  |
| CCOc1ccccc1N(C(=O)CNS(=O)(=O)c1ccccc1)C(CC)C(=O)NCc1ccco1 (stereo unspecified) | inactive |  |
| COc1ccc(CN2CC(=O)N(c3ccc(C)cc3C)C2=S)cc1OC | active: 13 µM |  |
| CCCCN1CC(C(=O)NC2CCCCC2)CC1=O (stereo unspecified) | inactive |  |
| O=Nc1c(-c2ccccc2)cc2ccccn12 | inconclusive: 6.51 µM [activator, full curve] |  |
| CC1CCN(C(=O)CCCC(=O)N2CCC(C)CC2)CC1 | inactive |  |
| CC(=O)c1cccc(OCC(=O)N2CCN(c3ccc(C(F)(F)F)cn3)CC2)c1 | inconclusive: 23.1 µM [falling, partial curve] |  |

The listing continues:

| SMILES | Potency | activity change, negative = inhibition |
| --- | --- | --- |
| Cc1ccc(-c2cc(-c3n[nH]c(=S)o3)c3ccccc3n2)cc1 | inactive |  |
| c1ccc(-c2csc3nnc(SCc4ccc5c(c4)OCCO5)n23)cc1 | inconclusive: 25.9 µM [falling, single point] |  |
| Cc1ccc(NC(=O)Nc2sc3nc4n(c(=O)c3c2C)CCC(C)CC4)c(Cl)c1 (stereo unspecified) | inconclusive: 3.26 µM [falling, partial curve, poor fit] |  |
| O=C(C1CC(c2cccc(Br)c2)=NO1)N1CCc2ccccc2C1 (stereo unspecified) | inconclusive: 20.6 µM [falling, partial curve, poor fit] |  |
| Cc1ccc(SCc2ccc(C(=O)Nc3cccnc3)cc2)cc1 | inactive |  |
| C=CCc1cccc(CNc2cnc3ccccc3c2)c1O | active: 23.1 µM |  |
| Cc1nc2c(c(C)c1CCC(=O)NCc1ccc(Cl)cc1)c(=O)n(C)c(=O)n2C | inactive |  |
| CCN1CCN(C(=O)CSc2ccc(C)cc2)CC1 | inconclusive: 23.1 µM [activator, partial curve, poor fit] |  |
| COc1ccc(OC)c(Nc2nc(NCCC(C)C)nc(N)c2[N+](=O)[O-])c1 | inconclusive: 29.1 µM [falling, single point] |  |
| COc1cc(CNc2ccc(CNc3ncn[nH]3)cc2)ccc1OCc1ccccc1 | inconclusive: 29.1 µM [falling, single point] |  |
| CC(=O)N1CCc2cc(S(=O)(=O)Nc3ccc(C)c(C)c3)ccc21 | active: 14.6 µM |  |
| CCOC(=O)C1(C)Oc2ccccc2C(C(=O)OC)=C1C(=O)OC (stereo unspecified) | inactive |  |
| O=C(NC(=S)NC1CCCCCC1)c1cncc(Br)c1 | inconclusive: 16.4 µM [activator, partial curve] |  |
| CCOC(=O)C(=NCC1CCCO1)NNc1ccccc1Cl (stereo unspecified) | inactive |  |
| O=c1[nH]c(=O)n(C2CCCCC2)c(O)c1C1=Nc2ccccc2SC(c2ccc(Cl)cc2)C1 (stereo unspecified) | inactive |  |
| O=C(c1ccc(S(=O)(=O)NCc2ccco2)cc1)N1CCN(Cc2ccccc2F)CC1 | inconclusive: 29.1 µM [falling, single point] |  |
| CC(C)(C)n1ncc2c(=O)n(CC(=O)Nc3ccccc3)cnc21 | inconclusive: 4.11 µM [activator, single point] |  |
| Cc1ccc2c(COC(=O)C34CC5CC(CC(C5)C3)C4)cc(=O)oc2c1 | inconclusive: 4.61 µM [activator, single point] |  |
| COc1cc(CC(=O)OCC(=O)N2CC(C)CC(C)C2)cc(OC)c1OC (stereo unspecified) | inconclusive: 5.17 µM [falling, partial curve] |  |
| Cc1nc(C(N)=O)nc2ccccc12 | inconclusive: 25.9 µM [activator, single point] |  |
| O=C(CN1CCC(Cc2ccccc2)CC1)N1CCc2ccccc2C1 | inactive |  |
| O=c1[nH]c2ccccc2nc1/C=C/c1ccccc1 | inconclusive: 3.26 µM [activator, full curve] |  |

| SMILES | Potency | activity change, negative = inhibition |
| --- | --- | --- |
| CN(c1ccccc1)c1ccc(/C=C(/CCC(=O)O)c2nc3ccccc3s2)cc1[N+](=O)[O-] | inconclusive: 18.4 µM [falling, single point] |  |
| N#Cc1ccccc1NC(=O)c1ccccc1OCC(=O)NCc1ccco1 | inactive |  |
| CCCOc1ccc(C2CC(=O)Nc3c2c(C)nn3-c2nncc(-c3cccc(OC)c3)n2)cc1OC (stereo unspecified) | inconclusive: 13 µM [activator, partial curve] |  |
| Cc1cc(C)n2nc(C(=O)N3CCN(c4ccc([N+](=O)[O-])cc4)CC3)nc2n1 | inconclusive: 7.31 µM [falling, partial curve] |  |
| CC[C@]1(C(=O)OC)[C@H]2C(=O)N(Cc3ccccc3)C(=O)[C@H]2[C@H]2CN(C)C(=NCc3ccccc3)N21 | inconclusive: 14.6 µM [activator, partial curve, poor fit] |  |
| CCN(c1ccccc1)S(=O)(=O)c1ccc(Cl)c(NC(=O)Nc2ccc(Cl)cc2C#N)c1 | inconclusive: 29.1 µM [falling, single point] |  |
| CS(=O)(=O)Nc1cccc(C2=NN(C(=O)c3ccccc3)C(c3cccs3)C2)c1 (stereo unspecified) | inconclusive: 25.9 µM [falling, partial curve, poor fit] |  |
| Cc1occc1C(=O)NC1CCCCCCC1 | inconclusive: 10.3 µM [activator, partial curve] |  |
| CCn1cc(SCC(=O)N2CCOCC2)c2ccccc21 | inconclusive: 10.3 µM [activator, partial curve] |  |
| O=C(NCCc1ccccc1Cl)c1ccc2c(=O)n(-c3ccccc3)c(=O)[nH]c2c1 |  | inactive: 0% [at 9.27 µM] |
| CCCS(=O)(=O)N1CC(=O)N(c2ccc(C)cc2)C(C)(C(=O)NC2CCCCCC2)C1 (stereo unspecified) | inconclusive: 29.1 µM [activator, single point] |  |
| CCC(=O)Nc1ccc2c(c1)Cc1cc(NC(=O)CC)ccc1-2 | inconclusive: 20.6 µM [falling, single point] |  |
| COc1cccc(C(=O)COc2ccc(NC(=O)c3cccs3)cc2)c1 | inconclusive: 18.4 µM [falling, single point] |  |
| COc1ccc(CCNC(=O)c2cc3sccc3n2Cc2ccc(Cl)cc2)cc1OC | inconclusive: 9.2 µM [falling, partial curve] |  |
| O=C(Nc1ccc(N2CCN(C(=O)c3ccccc3)CC2)cc1)c1ccc2c(c1)OCO2 | inconclusive: 23.1 µM [falling, single point] |  |
| COc1cc(Nc2ccccc2Cl)c([N+](=O)[O-])nc1[N+](=O)[O-] | inconclusive: 18.4 µM [falling, partial curve, poor fit] |  |
| COc1cccc(C(=O)OCC(=O)NCCNC(=O)COC(=O)c2cccc(OC)c2OC)c1OC | inconclusive: 29.1 µM [activator, partial curve, poor fit] |  |
| CCOC(=O)CC1(NC(=O)c2cc(COc3ccc(F)c(F)c3)on2)CCCCC1 | inconclusive: 29.1 µM [falling, single point] |  |
| O=c1c2ccccc2oc2ccc(-c3ccc4cc[nH]c4c3)cc12 | inconclusive: 1.3 µM [activator, partial curve, poor fit] |  |
| NC(=O)NOCc1ncc(C(F)(F)F)cc1Cl | inactive |  |
| COc1ccc(OC)c(N(CC(=O)N2CCc3ccccc3C2)S(C)(=O)=O)c1 | inconclusive: 0.0259 µM [falling, full curve, poor fit] |  |
| C/C(CC(=O)NCc1ccc(Cl)cc1)=N\NC(=O)c1ccccc1F | inconclusive: 20.6 µM [activator, partial curve, poor fit] |  |
